Results reported in the supplement of paper PMC8728848.
Some of the results follow.

Columns and labels:
Assay in all cases: glycan array binding signal (z-score within array); higher = stronger binding
Conditions in all cases: glycan notation: IUPAC condensed, linker removed
[1] = target: Gal(a1-3)Gal(b1-4)GlcNAc(b1-2)Man
Method in brief: (§1)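 The binding signal is a Z-score computed within each array. Data were drawn from 3228 arrays in the Consortium for Functional Glycomics database, restricted to those with a known protein sequence. Scores were averaged over arrays of the same protein sequence at different concentrations or buffers, and over linkers, and negative values can be taken as non-binding.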

[2] = target: Gal(a1-3)Gal(b1-4)GlcNAc(b1-2)Man(a1-3)[Gal(a1-3)Gal(b1-4)GlcNAc(b1-2)Man(a1-6)]Man(b1-4)GlcNAc(b1-4)GlcNAc
Method in brief: as §1

[3] = target: Gal(a1-3)Gal(b1-4)GlcNAc(b1-3)GalNAc
Method in brief: as §1

[4] = target: Gal(a1-3)Gal(b1-4)GlcNAc(b1-6)GalNAc
Method in brief: as §1

[5] = target: Gal(a1-3)Gal(b1-4)[Fuc(a1-3)]GlcNAc
Method in brief: as §1

[6] = target: Gal(a1-3)Gal(b1-4)[Fuc(a1-3)]GlcNAc(b1-2)Man(a1-3)[Gal(a1-3)Gal(b1-4)[Fuc(a1-3)]GlcNAc(b1-2)Man(a1-6)]Man(b1-4)GlcNAc(b1-4)GlcNAc
Method in brief: as §1

Gal(a1-3)GalNAc = target: Gal(a1-3)GalNAc
Method in brief: as §1

[7] = target: Gal(a1-3)[Gal(a1-4)]Gal(b1-4)GlcNAc
Method in brief: as §1

[8] = target: Gal(a1-4)Gal(b1-3)GlcNAc(b1-2)Man(a1-3)[Gal(a1-4)Gal(b1-3)GlcNAc(b1-2)Man(a1-6)]Man(b1-4)GlcNAc(b1-4)GlcNAc
Method in brief: as §1

Gal(a1-4)Gal(b1-4)Glc = target: Gal(a1-4)Gal(b1-4)Glc
Method in brief: as §1

Gal(a1-4)Gal(b1-4)GlcNAc = target: Gal(a1-4)Gal(b1-4)GlcNAc
Method in brief: as §1

[9] = target: Gal(a1-4)Gal(b1-4)GlcNAc(b1-2)Man(a1-3)[Gal(a1-4)Gal(b1-4)GlcNAc(b1-2)Man(a1-6)]Man(b1-4)GlcNAc(b1-4)GlcNAc
Method in brief: as §1

[10] = target: Gal(a1-4)Gal(b1-4)GlcNAc(b1-3)Gal(b1-4)Glc
Method in brief: as §1

Gal(a1-4)GlcNAc = target: Gal(a1-4)GlcNAc
Method in brief: as §1

Gal(a1-6)Glc = target: Gal(a1-6)Glc
Method in brief: as §1

Gal(b1-2)Gal = target: Gal(b1-2)Gal
Method in brief: as §1

Gal(b1-3)Gal = target: Gal(b1-3)Gal
Method in brief: as §1

Gal(b1-3)Gal(b1-4)GlcNAc = target: Gal(b1-3)Gal(b1-4)GlcNAc
Method in brief: as §1

Gal(b1-3)GalNAc = target: Gal(b1-3)GalNAc
Method in brief: as §1

[11] = target: Gal(b1-3)GalNAc(a1-3)[Fuc(a1-2)]Gal(b1-4)Glc
Method in brief: as §1

[12] = target: Gal(b1-3)GalNAc(a1-3)[Fuc(a1-2)]Gal(b1-4)GlcNAc
Method in brief: as §1

Gal(b1-3)GalNAc(b1-3)Gal = target: Gal(b1-3)GalNAc(b1-3)Gal
Method in brief: as §1

[13] = target: Gal(b1-3)GalNAc(b1-3)Gal(a1-4)Gal(b1-4)Glc
Method in brief: as §1

[14] = target: Gal(b1-3)GalNAc(b1-4)Gal(b1-4)Glc
Method in brief: as §1

[15] = target: Gal(b1-3)GalNAc(b1-4)[Neu5Ac(a2-3)]Gal(b1-4)Glc
Method in brief: as §1

Gal(b1-3)GlcNAc = target: Gal(b1-3)GlcNAc
Method in brief: as §1

[16] = target: Gal(b1-3)GlcNAc(a1-3)Gal(b1-4)GlcNAc
Method in brief: as §1

[17] = target: Gal(b1-3)GlcNAc(a1-6)Gal(b1-4)GlcNAc
Method in brief: as §1

Gal(b1-3)GlcNAc(b1-2)Man = target: Gal(b1-3)GlcNAc(b1-2)Man
Method in brief: as §1

[18] = target: Gal(b1-3)GlcNAc(b1-2)Man(a1-3)[Gal(b1-3)GlcNAc(b1-2)Man(a1-6)]Man(b1-4)GlcNAc(b1-4)GlcNAc
Method in brief: as §1

[19] = target: Gal(b1-3)GlcNAc(b1-2)Man(a1-3)[Gal(b1-3)GlcNAc(b1-2)Man(a1-6)]Man(b1-4)GlcNAc(b1-4)[Fuc(a1-6)]GlcNAc
Method in brief: as §1

[20] = target: Gal(b1-3)GlcNAc(b1-2)Man(a1-3)[GlcNAc(b1-4)][Gal(b1-3)GlcNAc(b1-2)Man(a1-6)]Man(b1-4)GlcNAc(b1-4)GlcNAc
Method in brief: as §1

[21] = target: Gal(b1-3)GlcNAc(b1-2)[Gal(b1-3)GlcNAc(b1-6)]Man(a1-6)[Gal(b1-3)GlcNAc(b1-2)Man(a1-3)]Man(b1-4)GlcNAc(b1-4)GlcNAc
Method in brief: as §1

[22] = target: Gal(b1-3)GlcNAc(b1-3)Gal(b1-3)GlcNAc
Method in brief: as §1

[23] = target: Gal(b1-3)GlcNAc(b1-3)Gal(b1-4)Glc
Method in brief: as §1

[24] = target: Gal(b1-3)GlcNAc(b1-3)Gal(b1-4)GlcNAc
Method in brief: as §1

[25] = target: Gal(b1-3)GlcNAc(b1-3)Gal(b1-4)GlcNAc(b1-2)Man(a1-3)[Gal(b1-3)GlcNAc(b1-3)Gal(b1-4)GlcNAc(b1-2)Man(a1-6)]Man(b1-4)GlcNAc(b1-4)GlcNAc
Method in brief: as §1

[26] = target: Gal(b1-3)GlcNAc(b1-3)Gal(b1-4)GlcNAc(b1-2)[Gal(b1-3)GlcNAc(b1-3)Gal(b1-4)GlcNAc(b1-6)]Man(a1-6)[Gal(b1-3)GlcNAc(b1-3)Gal(b1-4)GlcNAc(b1-2)Man(a1-3)]Man(b1-4)GlcNAc(b1-4)[Fuc(a1-6)]GlcNAc
Method in brief: as §1

[27] = target: Gal(b1-3)GlcNAc(b1-3)Gal(b1-4)GlcNAc(b1-3)Gal(b1-4)GlcNAc(b1-2)[Gal(b1-3)GlcNAc(b1-3)Gal(b1-4)GlcNAc(b1-3)Gal(b1-4)GlcNAc(b1-6)]Man(a1-6)[Gal(b1-3)GlcNAc(b1-3)Gal(b1-4)GlcNAc(b1-3)Gal(b1-4)GlcNAc(b1-2)Man(a1-3)]Man(b1-4)GlcNAc(b1-4)[Fuc(a1-6)]GlcNAc
Method in brief: as §1

[28] = target: Gal(b1-3)GlcNAc(b1-3)Gal(b1-4)GlcNAc(b1-6)[Gal(b1-3)GlcNAc(b1-3)]Gal(b1-4)Glc
Method in brief: as §1

[29] = target: Gal(b1-3)GlcNAc(b1-3)Gal(b1-4)[Fuc(a1-3)]GlcNAc
Method in brief: as §1

[30] = target: Gal(b1-3)GlcNAc(b1-3)Gal(b1-4)[Fuc(a1-3)]GlcNAc(b1-6)[Gal(b1-3)GlcNAc(b1-3)]Gal(b1-4)Glc
Method in brief: as §1

[31] = target: Gal(b1-3)GlcNAc(b1-3)GalNAc
Method in brief: as §1

[32] = target: Gal(b1-3)GlcNAc(b1-6)Gal(b1-4)GlcNAc
Method in brief: as §1

[33] = target: Gal(b1-3)GlcNAc(b1-6)GalNAc
Method in brief: as §1

B1: Epa3to2 (Candida glabrata) (protein)
chain: MGSSHHHHHHSSGLVPRGSHMKRELSSQNPFGYPIGCSPQDVAIIPGLTMELYSYPIVSGTPPNCYDASYVDPEYPRTGYLKRKMVGKSTGVTGNLNYKYSVEKACMVKYGNLPAGYNYNEPLTVSNFTMILYGYFKAQTTGLHTFFVNADDLLYINFGAGNAFDCCKREDSKTKLGEYVAYDIWHVDSSKNKVSLFLEKDLYYPIRMFFNNRDNNSSLDLSFSVNGATDQISDFSGYLYSVPDQPDTCPAHIGYDTTCR
In the case of B1, the “glycan array binding signal (z-score)” value [1] is reported as -0.911, the “glycan array binding signal (z-score)” value [2] is reported as -0.05 and the “glycan array binding signal (z-score)” value [3] is reported as 0.51. For the same binder, the “glycan array binding signal (z-score)” value [4] was 0.403, the “glycan array binding signal (z-score)” value [5] was -0.662 and the “glycan array binding signal (z-score)” value [6] was 0.812. The “glycan array binding signal (z-score)” value (Gal(a1-3)GalNAc) was -0.609, the “glycan array binding signal (z-score)” value [7] was 0.19 and the “glycan array binding signal (z-score)” value [8] was 1.14. The “glycan array binding signal (z-score)” value (Gal(a1-4)Gal(b1-4)Glc) was 0.552, the “glycan array binding signal (z-score)” value (Gal(a1-4)Gal(b1-4)GlcNAc) was 0.54 and the “glycan array binding signal (z-score)” value [9] was 1.02. The “glycan array binding signal (z-score)” value [10] was -0.122, the “glycan array binding signal (z-score)” value (Gal(a1-4)GlcNAc) was 0.908 and the “glycan array binding signal (z-score)” value (Gal(a1-6)Glc) was -0.555. The “glycan array binding signal (z-score)” value (Gal(b1-2)Gal) was -0.498, the “glycan array binding signal (z-score)” value (Gal(b1-3)Gal) was 1.43 and the “glycan array binding signal (z-score)” value (Gal(b1-3)Gal(b1-4)GlcNAc) was -0.279. The “glycan array binding signal (z-score)” value (Gal(b1-3)GalNAc) was 0.472, the “glycan array binding signal (z-score)” value [11] was 0.116 and the “glycan array binding signal (z-score)” value [12] was 0.294. The “glycan array binding signal (z-score)” value (Gal(b1-3)GalNAc(b1-3)Gal) was -0.825, the “glycan array binding signal (z-score)” value [13] was 0.664 and the “glycan array binding signal (z-score)” value [14] was 1.46. For the same binder, the “glycan array binding signal (z-score)” value [15] was -0.383, the “glycan array binding signal (z-score)” value (Gal(b1-3)GlcNAc) was -0.751 and the “glycan array binding signal (z-score)” value [16] was -0.807. For the same binder, the “glycan array binding signal (z-score)” value [17] was 0.817, the “glycan array binding signal (z-score)” value (Gal(b1-3)GlcNAc(b1-2)Man) was -0.927 and the “glycan array binding signal (z-score)” value [18] was 1.76. The “glycan array binding signal (z-score)” value [19] was 0.013, the “glycan array binding signal (z-score)” value [20] was 0.033 and the “glycan array binding signal (z-score)” value [21] was 0.52. The “glycan array binding signal (z-score)” value [22] was -1.5, the “glycan array binding signal (z-score)” value [23] was -0.861 and the “glycan array binding signal (z-score)” value [24] was -0.803. The “glycan array binding signal (z-score)” value [25] was -0.538, the “glycan array binding signal (z-score)” value [26] was 0.293 and the “glycan array binding signal (z-score)” value [27] was 0.431. For the same binder, the “glycan array binding signal (z-score)” value [28] was 0.876, the “glycan array binding signal (z-score)” value [29] was 0.065 and the “glycan array binding signal (z-score)” value [30] was 0.205. For the same binder, the “glycan array binding signal (z-score)” value [31] was -0.784, the “glycan array binding signal (z-score)” value [32] was 0.93 and the “glycan array binding signal (z-score)” value [33] was -0.753.
